Test results: PubChem BioAssay AID504444 (National Center for Advancing Translational Sciences (NCATS), 2011)
Out of some 360,000 compounds screened, about 7,500 (2.1%) were called active. The inconclusive results got no clear call from the source; some entries with a clear call stand among them for comparison. The call rests on the fitted dose curve; in most records, active means well fitted inhibition curve with a large enough effect; inconclusive means small, poorly fitted or top-dose-only effect, or effect the other way; inactive means flat fitted curve, though single readings scatter. A potency beside an inconclusive call is a rough fit, not a confirmed value.

Experiment: Nrf2 qHTS screen for inhibitors; further: nearly all actives have a fitted effect of over 60% in size
Conditions: A549 ARE-Fluc reporter, luciferase luminescence, 18-24 h; series mostly up to 46 µM
Procedure, shortened: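 A549 ARE_Fluc cells (5000/well, 5% FBS OPTI-MEM) pre-incubated 2 h, then treated with compounds 18-24 h at 37C/5% CO2 in concentration-response. CellTiter-Fluor viability read first; BugLite luciferase luminescence after 15 min at room temperature gives Nrf2 activity.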
Potency means the concentration at half of the fitted maximal effect.

Question: Which Potency does the source give for `COc1ccc2c(C)c(CC(=O)NCc3ccccc3Cl)c(=O)oc2c1OC` here?
Answer: The Potency was “inactive”.

Question: For `C/C(=N\NC(=O)c1ccc(N2CCCC2=O)cc1)c1ccccc1`, which Potency is on record?
Answer: Its Potency is inconclusive: 10.3 µM [activator, partial curve, poor fit].

Question: Which Potency does the source give for `Cc1onc(-c2ccc(Cl)cc2)c1-c1ccnn1S(=O)(=O)c1ccc(Cl)cc1` here?
Answer: The Potency was inconclusive: 18.4 µM [falling, single point].

Question: For `COc1ccc2c(c1)c1c(c(=O)n(CCc3ccccc3)c(=O)n1Cc1cccc(F)c1)n2C`, which Potency is on record?
Answer: The Potency was inconclusive: 29.1 µM [activator, single point].

Question: Which Potency does the source give for `Cc1nc2nc(SCC(=O)NCc3ccco3)nn2c(C)c1Cc1c(F)cccc1Cl` here?
Answer: Its Potency is inconclusive: 29.1 µM [falling, single point].

Question: With `CSc1ccc(C2NN=C(c3ccccc3)S2)cc1` (stereo not drawn) as the molecule, how does the Potency read?
Answer: The Potency was inconclusive: 2.06 µM [activator, partial curve].

Question: With `CN(C)S(=O)(=O)N1CCC(n2c(C(F)(F)F)nc3cccnc32)CC1` as the molecule, how does the Potency read?
Answer: Its Potency is inconclusive: 20.6 µM [falling, single point].

Question: For `CC(C)(C)OC(=O)N1CCC(c2c(C(=O)N3CCN(Cc4ccccc4)CC3)cnn2-c2cccc(Cl)c2)CC1`, which Potency is on record?
Answer: The Potency was inconclusive: 6.51 µM [falling, single point].

Question: For `c1ccn2cc(C34CC5CC(CC(C5)C3)C4)nc2c1`, which Potency is on record?
Answer: The Potency was inconclusive: 7.31 µM [activator, partial curve, poor fit].

Question: Which Potency does the source give for `COc1cc(OC)c(NC(=O)Cn2ncn3c(cc4cc(C)ccc43)c2=O)cc1Cl` here?
Answer: The Potency was inconclusive: 9.2 µM [activator, partial curve, poor fit].

Question: For `Oc1ccccc1-c1cc(-c2ccccc2Cl)[nH]n1`, which Potency is on record?
Answer: The Potency was inconclusive: 20.6 µM [activator, single point].

Question: Which Potency does the source give for `C/C(N)=C(/C#N)C(=O)COC(=O)c1ccc(NC(N)=O)cc1` here?
Answer: Its Potency is “inactive”.

Question: For `COc1ccccc1CNC(=O)Cn1cc2c(n1)-c1c(oc(C(=O)N3CCOCC3)c1C)CC2`, which Potency is on record?
Answer: The Potency was inconclusive: 29.1 µM [falling, single point].

Question: For `Cc1sc2ncnc(N3CCC(C(=O)N4CC(C)SC4=Nc4ccc(Cl)cc4)CC3)c2c1C` (stereo not drawn), which Potency is on record?
Answer: Its Potency is inconclusive: 29.1 µM [falling, single point].

Question: Which Potency does the source give for `Nc1nsc2ccccc12` here?
Answer: The Potency was inconclusive: 2.59 µM [falling, partial curve, poor fit].

Question: Which Potency does the source give for `COC(=O)c1sccc1S(=O)(=O)N(CC(=O)Nc1cccc(C)c1C)c1ccc(C)c(C)c1` here?
Answer: Its Potency is inconclusive: 29.1 µM [falling, single point].

Question: Which Potency does the source give for `CCOC(=O)N1CCN(C(=O)c2oc3ccc(S(=O)(=O)N4CCCCC4)cc3c2C)CC1` here?
Answer: Its Potency is inconclusive: 16.4 µM [falling, single point].

Question: Which Potency does the source give for `CN1/C(=C/c2cccc[n+]2C)Sc2ccccc21` here?
Answer: The Potency was active: 0.82 µM.

Question: For `COc1ccc(CNC(=O)C(OC(=O)c2ccco2)c2ccccc2F)cc1` (stereo not drawn), which Potency is on record?
Answer: The Potency was inconclusive: 16.4 µM [activator, single point].

Question: With `CCn1c(COc2cccc3ccccc23)nnc1SCC(N)=O` as the molecule, how does the Potency read?
Answer: The Potency was “inactive”.

Question: With `C/C(=N/N=C(/N)SCc1ccccc1)C(C)(C)C` as the molecule, how does the Potency read?
Answer: The Potency was inconclusive: 29.1 µM [activator, single point].

Question: With `CN1CCCN(C(=O)c2c(F)cccc2Cl)CC1` as the molecule, how does the Potency read?
Answer: Its Potency is “inactive”.

Question: With `Clc1ccccc1OCc1nnc(-c2ccccc2Br)o1` as the molecule, how does the Potency read?
Answer: Its Potency is inconclusive: 9.2 µM [activator, partial curve].

Question: With `Cc1ccc(C(c2nnnn2C2CCCCC2)N(C)C2CCCCC2)cc1` (stereo not drawn) as the molecule, how does the Potency read?
Answer: The Potency was active: 25.9 µM.

Question: Which Potency does the source give for `CCCCCCCN(c1ccccc1)[C@@H]1C[C@H]2CCCC(=O)N3CC[C@@H](C1)[C@@H]23` here?
Answer: Its Potency is inconclusive: 25.9 µM [falling, single point].

Question: With `O=C(c1cnn(-c2ccccc2)c1)c1ccccc1O` as the molecule, how does the Potency read?
Answer: Its Potency is inconclusive: 23.1 µM [activator, single point].

Question: Which Potency does the source give for `O=C(Nc1ccccc1N1CCOCC1)c1ccc(N2CCOCC2)c([N+](=O)[O-])c1` here?
Answer: The Potency was inconclusive: 13 µM [activator, partial curve, poor fit].

Question: For `COc1ccc(-c2nnc(SC(C)C(=O)Nc3ccc4c(c3)OCCO4)o2)cc1` (stereo not drawn), which Potency is on record?
Answer: The Potency was inconclusive: 20.6 µM [activator, single point].

Question: Which Potency does the source give for `CCS(=O)(=O)N1CCC(C(=O)c2ccc(Cl)cc2)CC1` here?
Answer: Its Potency is inconclusive: 9.2 µM [falling, partial curve, poor fit].

Question: For `CCOc1ccc(Nc2nc(-c3cccnc3)cs2)cc1`, which Potency is on record?
Answer: Its Potency is inconclusive: 25.9 µM [activator, partial curve, poor fit].

Question: Which Potency does the source give for `COc1ccc2c(c1)[N+](C)(C)C(C)(C)C=C2C` here?
Answer: The Potency was “inactive”.

Question: Which Potency does the source give for `COC(=O)CC1Oc2ccccc2-n2cc(-c3ccc(F)cc3)nc21` (stereo not drawn) here?
Answer: The Potency was inconclusive: 5.8 µM [falling, partial curve].

Question: With `C/C(=N\NC(=O)c1ccc(N2CCCC2=O)cc1)c1ccncc1` as the molecule, how does the Potency read?
Answer: The Potency was inconclusive: 5.17 µM [activator, full curve, poor fit].

Question: For `Cc1ccc(OCCCC(=O)Nc2ccc3c(c2)OCCO3)cc1`, which Potency is on record?
Answer: The Potency was inconclusive: 29.1 µM [falling, partial curve, poor fit].

Question: For `Cc1ccc(Nc2nc3nonc3[nH]c2=O)cc1`, which Potency is on record?
Answer: Its Potency is inconclusive: 5.17 µM [activator, full curve].

Question: With `NS(=O)(=O)c1ccc(-n2nncc2-c2ccco2)cc1` as the molecule, how does the Potency read?
Answer: Its Potency is inconclusive: 6.51 µM [activator, partial curve, poor fit].

Question: For `COc1ccc(CCNC(=O)CN(c2ccccc2)S(=O)(=O)N(C)C)cc1OC`, which Potency is on record?
Answer: Its Potency is “inactive”.

Question: For `CC(C)(O)C#Cc1ccc(C(=O)N2CCN(C(=O)c3ccco3)CC2)cc1`, which Potency is on record?
Answer: Its Potency is inconclusive: 32.6 µM [falling, single point].

Question: For `COc1ccccc1-c1nnc(NC(C)=O)s1`, which Potency is on record?
Answer: The Potency was inconclusive: 1.03 µM [activator, full curve, poor fit].

Question: With `Clc1ccc2nc3ccccn3c2c1` as the molecule, how does the Potency read?
Answer: The Potency was “inactive”.

Question: For `O=C(/C=C/c1ccc([N+](=O)[O-])cc1)NCc1cccnc1`, which Potency is on record?
Answer: The Potency was “inactive”.

Question: For `CC(=O)NC1=NN(C(C)=O)C(C)(c2ccc(Br)cc2)S1` (stereo not drawn), which Potency is on record?
Answer: The Potency was inconclusive: 29.1 µM [activator, single point].

Question: Which Potency does the source give for `CN1CCc2cc3c(c4c2C1CC41CCC(=NO)CC1)OCO3` (stereo not drawn) here?
Answer: Its Potency is “inactive”.
